Assay results: patent publication US20230227833
A negative result means that nothing was seen under these conditions.

The chains behind the UniProt entries cited, without tags or fusion partners.
UniProt P19821, whole entry: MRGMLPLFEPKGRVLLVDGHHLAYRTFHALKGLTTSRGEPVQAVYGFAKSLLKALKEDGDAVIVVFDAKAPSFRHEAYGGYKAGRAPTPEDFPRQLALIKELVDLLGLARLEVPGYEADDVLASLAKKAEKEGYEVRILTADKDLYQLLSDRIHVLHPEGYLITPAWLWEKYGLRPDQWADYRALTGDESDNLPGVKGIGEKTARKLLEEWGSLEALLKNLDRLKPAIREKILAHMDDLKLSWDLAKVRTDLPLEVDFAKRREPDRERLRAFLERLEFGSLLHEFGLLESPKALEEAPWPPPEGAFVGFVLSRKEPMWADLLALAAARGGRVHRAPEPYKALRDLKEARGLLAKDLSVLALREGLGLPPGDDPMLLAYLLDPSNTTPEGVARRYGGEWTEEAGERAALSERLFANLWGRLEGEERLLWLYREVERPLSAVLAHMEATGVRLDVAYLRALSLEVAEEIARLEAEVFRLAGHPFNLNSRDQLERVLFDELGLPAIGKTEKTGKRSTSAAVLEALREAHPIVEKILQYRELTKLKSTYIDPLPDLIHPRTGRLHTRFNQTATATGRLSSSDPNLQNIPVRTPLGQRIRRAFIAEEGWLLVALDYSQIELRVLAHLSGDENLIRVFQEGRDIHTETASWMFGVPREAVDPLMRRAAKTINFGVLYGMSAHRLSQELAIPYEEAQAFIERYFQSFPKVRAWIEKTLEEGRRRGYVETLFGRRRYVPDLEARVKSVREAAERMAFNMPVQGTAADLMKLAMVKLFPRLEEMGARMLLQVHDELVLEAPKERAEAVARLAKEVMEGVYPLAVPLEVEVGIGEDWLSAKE

Target: Taq DNA polymerase (UniProt P19821)
Experiment: inhibition of the protein
Details: purified recombinant protein, folded or branched DNA

## TCGAACGGTATATATATTAATATATATATAC [ligand 1 3' phosphorylated]
3' phosphate, inhibits at 45 C, released at 70 C, variant of ligand 1 (3' dideoxy)
  activity on this sequence: active

## TCGAACGGATTACAGCTGTAATC [analog 2 (Example 10)]
3' dideoxy, inhibits at 30 and 40 C, release starts at 50 C, complete at 60 C
  activity on this sequence: active

## TCGAACGGTATATATATTAATATATATATAC [ligand 1 3' amino]
3' amino, inhibits at 45 C, released at 70 C, variant of ligand 1 (3' dideoxy)
  activity on this sequence: active

## TCGAACGGTATATATATTAATATATATATAC [ligand 1 (3' dideoxy)]
3' dideoxy, activity lost below 50 C, fully released at 70 C
  activity on this sequence: active

## TCGAACGGTATATATATTAATATATATATAC [ligand 1 control, 3' unmodified]
3' unmodified control, full polymerase activity retained (45 C in Example 4), variant of ligand 1 (3' dideoxy)
  activity on this sequence: not active
